Literature values as cited in patent US8183203B2, “Methods for treating pulmonary hypertension and compositions comprising vasoactive intestinal peptide” (Avant Garde Therapeutics & Technologies LLC, priority 1999, dated 2012).
For at least one compound, name, drawing or mass did not settle the structure.

Experiments:
[1] = system: dogs during cardiac arrest; settings: five dogs in cardiac arrest; defibrillation, standard drugs and CPR unsuccessful; large bolus doses
[2] = system: isolated rat hearts

## NC(Cc1cc(I)c(Oc2cc(I)c(O)c(I)c2)c(I)c1)C(=O)O (centres unmarked) [T4, 0-(4-Hydroxy-3,5-diiodophenyl)-3,5-diidotyrosine]
[1]
  successful resuscitation: All the animals were successfully resuscitated
[2]
  maximum dp/dt (contractility) after a bolus injection: remained unchanged
